No constants are given. Whether binding was seen depends on the method and setting. In cells and extracts the contact can be indirect. Here binding means that the protein was enriched with, or labelled near, the bait; the list need not be complete.
Target: T1, synthetic peptide corresponding to the coiled-coil motif of mouse EPG5 (mouse)
T1 sequence (peptide, biotin on the N-terminus): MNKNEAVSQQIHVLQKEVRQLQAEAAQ
Experiment: affinity purification with mass spectrometry; 1 mg biotinylated EPG5 coiled-coil peptide incubated with ES cell lysates, precipitated with anti-biotin beads, washed with lysis buffer, SDS-PAGE, in-gel digestion, LC-MS/MS; only the target purified

B1: USP8 (endogenous, mouse ESCs) (enzyme, UniProt Q80U87 1-1080)
chain: MPAVASVPKELYLSSSLKDLNKKTEVKPEKTSTKNYIHSAQKIFKTAEECRLDRDEERAYVLYMKYVAVYNLIKKRPDFKQQQDYYLSILGPANIKKAIEEAERLSESLKLRYEEAEVRKQLEEKDRREEEQLQQQKRQEMGREDSGAAAKRSVENLLDSKTKTQRINGEKSEGAAAAERGAITAKELYTMMMDKNTSLIIMDARKIQDYQHSCILDSLSVPEEAISPGVTASWIEANLSDDSKDTWKKRGSVDYVVLLDWFSSAKDLLLGTTLRSLKDALFKWESKTVLRHEPLVLEGGYENWLLCYPQFTTNAKVTPPPRSRAEEVSVSLDFTYPSLEEPVPSKLPTQMPPPPIETNEKALLVTDQDEKLRLSTQPALAGPGAAPRAEASPIIQPAPATKSVPQVDRTKKPSVKLPEDHRIKSENTDQSGRVLSDRSTKPVFPSPTTMLTDEEKARIHQETALLMEKNKQEKELWDKQQKEQKEKLRREEQERKAGKTQDADERDSTENQHKAKDGQEKKDSKQTKTEDRELSADGAQEATGTQRQSKSEHEASDAKVPVEGKRCPTSEAQKRPADVSPASVSGELNAGKAQREPLTRARSEEMGRIVPGLPLGWAKFLDPITGTFRYYHSPTNTVHMYPPEMAPSSAPPSTPPTHKVKPQVPAERDREPSKLKRSYSSPDITQALQEEEKRRPAVTPMVNRENKPPCYPKAEISRLSASQIRNLNPVFGGSGPALTGLRNLGNTCYMNSILQCLCNAPHLADYFNRNCYQDDINRSNLLGHKGEVAEEFGIIMKALWTGQYRYISPKDFKVTIGKINDQFAGSSQQDSQELLLFLMDGLHEDLNKADNRKRHKEENNEHLDDLQAAEHAWQKHKQLNESIIVALFQGQFKSTVQCLTCRRRSRTFEAFMYLSLPLASTSKCTLQDCLRLFSKEEKLTDNNRFYCSHCRARRDSLKKIEIWKLPPVLLVHLKRFSYDGRWKQKLQTSVDFPLENLDLSQYVIGPKNSLKKYNLFSVSNHYGGLDGGHYTAYCKNAARQRWFKFDDHEVSDISVSSVRSSAAYILFYTSLGPRITDVAT
binding: binds

From PMC6443784
